According to patent US20070092587A1, “Extract from plant of japanese parsley family and process for producing the same” (priority 2004, published 2007):
For at least one compound, name, drawing or mass did not settle the structure.

Assays:
[1] = test system: mature adipocytes (3T3-L1 cells); test: Enhancing action on glucose uptake (2-deoxyglucose uptake) into mature adipocytes; type: cell-based; details: isolated compounds at final 3-30 μM; insulin 1 μg/mL positive control; compared to negative control
Protocol: The induction of differentiation into mature adipocytes was carried out by partially modifying the method of Rubin C. S. et al. 3T3-L1 cells were suspended in a 10% fetal bovine serum-containing Dulbecco's modified Eagle's medium containing 200 μM ascorbic acid so as to have a density of 4×10^3 cells/mL, and the suspension was put in each well of a 12-well microtiter plate in an amount of 2 mL per well. The cells were cultured at 37° C. for 7 days in the presence of 5% carbon dioxide gas. […]
As the evaluation of enhancing action on glucose uptake, and also as the evaluation of insulin-mimetic action, the amount of 2-deoxyglucose uptake into mature adipocytes stimulated with the sample ([…]) in the adipocytes was determined.
After the termination of the culture, the medium was removed, and the cells were washed twice with a 0.1% (w/v) bovine serum albumin (manufactured by Sigma, A8022)-containing Dulbecco's modified Eagle's medium. […] The radioactivity was determined with a liquid scintillation counter LS6500 (manufactured by Beckmann) using 25 μl of the supernatant with Ultima Gold (manufactured by PerkinElmer Life Sciences Inc., 6013329) as a scintillation cocktail. […]

[2] = test system: Preadipocyte cell line 3T3-L1; test: Induction of differentiation into adipocytes (amount of triglyceride biosynthesis); type: cell-based; details: isolated compounds at final 1-30 μM; seven days after addition
Protocol: The induction of differentiation into adipocytes was carried out by partially modifying the method of Rubin C. S. et al. (J. Biol. Chem., Vol. 253, No. 20, p7570-7578 (1978)). Preadipocyte cell line 3T3-L1 (ATCC CCL-92.1) was suspended in a 10% fetal bovine serum (manufactured by GIBCO)-containing Dulbecco's modified Eagle's medium (manufactured by Sigma, D6046) containing 200 μM ascorbic acid (hereinafter referred to as A-D-MEM medium) so as to have a density of 4×10^3 cells/mL, and the suspension was put in each well of a 12-well microtiter plate in an amount of 2 mL per well. The cells were cultured at 37° C. for 7 days in the presence of 5% carbon dioxide gas. The medium was exchanged with the same medium on the second day and the fourth day. On the seventh day, the medium was exchanged with A-D-MEM medium containing 0.25 μM dexamethasone. […]
The amount of triglyceride in the adipocytes was determined as an index for inducing differentiation into matured adipocytes, and as evaluation of insulin-mimetic action. […] The precipitate was dissolved in 100 μL of isopropanol, and thereafter the amount of triglyceride contained in 10 μL of the resulting solution was determined with Triglyceride E-Test (manufactured by Wako Pure Chemical Industries, Ltd., code 432-40201). […]

CC(C)=CCC/C(C)=C/Cc1c(O)ccc(C(=O)/C=C/c2ccc(O)cc2)c1O [xanthoangelol]
enhancement of 2-deoxy-[1,2-3H(N)]-glucose uptake [1]: enhancement of 2-deoxy-[1,2-^3H(N)]-glucose uptake was found
induction of biosynthesis of triglyceride (inducing action on differentiation into mature adipocytes) [2]: induction of biosynthesis of triglyceride was found
